Two molecules from publication PMC7507497 can be followed below.

These are yes or no findings as the source states them, for the method shown. Binding seen in cells or lysates may run through a third protein. Some binding calls cover weakened binding; strength is not graded here.

For assay [1], the target named is FLAG-tagged AGO1 (human) (UniProt Q9UL18). Description: co-IP; anti-FLAG M2 IP of FLAG-AGO1 or FLAG-AGO1x from total cell lysates, SDS-PAGE and Western blotting.
For assay [2], the target named is T1, polyribonucleotide nucleotidyltransferase 1 (PNPT1) (human (endogenous in MDA-MB-231)) (UniProt Q8TCS8).
T1 sequence: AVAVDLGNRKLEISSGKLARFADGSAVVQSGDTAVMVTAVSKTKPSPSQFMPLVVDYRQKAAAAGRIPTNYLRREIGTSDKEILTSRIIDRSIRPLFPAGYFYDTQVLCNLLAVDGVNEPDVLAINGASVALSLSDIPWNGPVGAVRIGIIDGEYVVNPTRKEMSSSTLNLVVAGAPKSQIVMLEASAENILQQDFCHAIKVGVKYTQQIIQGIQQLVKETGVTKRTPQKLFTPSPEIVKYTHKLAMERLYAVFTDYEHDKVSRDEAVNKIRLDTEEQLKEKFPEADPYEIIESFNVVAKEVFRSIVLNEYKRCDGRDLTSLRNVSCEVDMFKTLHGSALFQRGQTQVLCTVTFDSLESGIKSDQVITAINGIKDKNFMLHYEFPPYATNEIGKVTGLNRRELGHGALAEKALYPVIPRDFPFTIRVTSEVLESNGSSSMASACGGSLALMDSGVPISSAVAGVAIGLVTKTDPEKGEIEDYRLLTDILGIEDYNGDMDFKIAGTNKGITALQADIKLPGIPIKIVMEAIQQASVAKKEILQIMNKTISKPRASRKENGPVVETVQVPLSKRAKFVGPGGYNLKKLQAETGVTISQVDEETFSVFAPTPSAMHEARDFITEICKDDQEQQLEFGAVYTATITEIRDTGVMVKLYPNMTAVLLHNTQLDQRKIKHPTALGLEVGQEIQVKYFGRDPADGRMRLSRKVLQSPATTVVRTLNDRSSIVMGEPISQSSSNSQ
The assay is described as follows: co-IP; reciprocal IP with PNPT1 antibody against IgG from control and mutant MDA-MB-231 cells, done like the AGO1x IP; Western blotting; three biological replicates.

In the case of “TNRC6B/GW182 (from UniProt Q9UPQ9 1-1833)”, in assay [1], the binding entry was “binds”.

B1: fibrillarin (FBL) (protein, UniProt P22087 1-321)
chain: MKPGFSPRGGGFGGRGGFGDRGGRGGRGGFGGGRGRGGGFRGRGRGGGGGGGGGGGGGRGGGGFHSGGNRGRGRGGKRGNQSGKNVMVEPHRHEGVFICRGKEDALVTKNLVPGESVYGEKRVSISEGDDKIEYRAWNPFRSKLAAAILGGVDQIHIKPGAKVLYLGAASGTTVSHVSDIVGPDGLVYAVEFSHRSGRDLINLAKKRTNIIPVIEDARHPHKYRMLIAMVDVIFADVAQPDQTRIVALNAHTFLRNGGHFVISIKANCIDSTASAEAVFASEVKKMQQENMKPQEQLTLEPYERDHAVVVGVYRPPPKVKN
Take B1: in assay [2], the binding entry is given as “binds”.
